Laboratory results: the supplement of paper PMC6411743
± gives the standard deviation of the averaged measurements. The list shows a part of the results, in another mix than the full data.

How the values were obtained:
Experiment in all cases: NP40-soluble protein abundance relative to vehicle (solubility fold change) (ratio); higher = more soluble protein in presence of ATP
[1] = target: T1, UniProt O95479 and related entries
T1 sequence (whole entry): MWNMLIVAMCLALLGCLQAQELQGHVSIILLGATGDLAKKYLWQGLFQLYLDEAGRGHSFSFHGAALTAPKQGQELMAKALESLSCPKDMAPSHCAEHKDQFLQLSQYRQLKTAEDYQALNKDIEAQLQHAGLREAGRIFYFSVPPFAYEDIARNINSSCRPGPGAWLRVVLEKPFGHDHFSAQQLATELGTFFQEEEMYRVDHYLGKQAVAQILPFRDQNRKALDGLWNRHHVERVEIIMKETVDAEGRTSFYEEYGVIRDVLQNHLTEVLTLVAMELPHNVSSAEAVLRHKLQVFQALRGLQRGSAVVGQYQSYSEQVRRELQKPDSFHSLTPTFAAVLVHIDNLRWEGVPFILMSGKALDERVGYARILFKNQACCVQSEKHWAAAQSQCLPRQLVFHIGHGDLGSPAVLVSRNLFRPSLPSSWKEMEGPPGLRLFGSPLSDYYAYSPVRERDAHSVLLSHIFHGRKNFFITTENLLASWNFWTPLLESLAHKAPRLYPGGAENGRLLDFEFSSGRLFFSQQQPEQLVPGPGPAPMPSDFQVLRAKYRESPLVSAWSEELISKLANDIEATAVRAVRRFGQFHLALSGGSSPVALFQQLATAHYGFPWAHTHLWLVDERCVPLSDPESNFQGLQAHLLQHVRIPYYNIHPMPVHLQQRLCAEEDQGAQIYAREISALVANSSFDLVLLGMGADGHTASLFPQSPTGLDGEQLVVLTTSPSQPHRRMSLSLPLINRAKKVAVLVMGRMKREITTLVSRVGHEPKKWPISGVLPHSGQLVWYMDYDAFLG
Summary of the method: (§1)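 Jurkat crude lysate prepared with a Dounce homogeniser was treated at eight concentrations spanning 0.1 to 10 mM, 10 min at room temperature then 3 min at 37 °C. Solubilisation with 0.8% NP40 and benzonase and ultracentrifugation preceded TMT labelling of the supernatant for LC-MS/MS. Fold change against the detergent-processed vehicle was determined per replicate from vsn-normalised intensities, across three independent experiments.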

[2] = target: T2, UniProt O95487 and related entries
T2 sequence (whole entry): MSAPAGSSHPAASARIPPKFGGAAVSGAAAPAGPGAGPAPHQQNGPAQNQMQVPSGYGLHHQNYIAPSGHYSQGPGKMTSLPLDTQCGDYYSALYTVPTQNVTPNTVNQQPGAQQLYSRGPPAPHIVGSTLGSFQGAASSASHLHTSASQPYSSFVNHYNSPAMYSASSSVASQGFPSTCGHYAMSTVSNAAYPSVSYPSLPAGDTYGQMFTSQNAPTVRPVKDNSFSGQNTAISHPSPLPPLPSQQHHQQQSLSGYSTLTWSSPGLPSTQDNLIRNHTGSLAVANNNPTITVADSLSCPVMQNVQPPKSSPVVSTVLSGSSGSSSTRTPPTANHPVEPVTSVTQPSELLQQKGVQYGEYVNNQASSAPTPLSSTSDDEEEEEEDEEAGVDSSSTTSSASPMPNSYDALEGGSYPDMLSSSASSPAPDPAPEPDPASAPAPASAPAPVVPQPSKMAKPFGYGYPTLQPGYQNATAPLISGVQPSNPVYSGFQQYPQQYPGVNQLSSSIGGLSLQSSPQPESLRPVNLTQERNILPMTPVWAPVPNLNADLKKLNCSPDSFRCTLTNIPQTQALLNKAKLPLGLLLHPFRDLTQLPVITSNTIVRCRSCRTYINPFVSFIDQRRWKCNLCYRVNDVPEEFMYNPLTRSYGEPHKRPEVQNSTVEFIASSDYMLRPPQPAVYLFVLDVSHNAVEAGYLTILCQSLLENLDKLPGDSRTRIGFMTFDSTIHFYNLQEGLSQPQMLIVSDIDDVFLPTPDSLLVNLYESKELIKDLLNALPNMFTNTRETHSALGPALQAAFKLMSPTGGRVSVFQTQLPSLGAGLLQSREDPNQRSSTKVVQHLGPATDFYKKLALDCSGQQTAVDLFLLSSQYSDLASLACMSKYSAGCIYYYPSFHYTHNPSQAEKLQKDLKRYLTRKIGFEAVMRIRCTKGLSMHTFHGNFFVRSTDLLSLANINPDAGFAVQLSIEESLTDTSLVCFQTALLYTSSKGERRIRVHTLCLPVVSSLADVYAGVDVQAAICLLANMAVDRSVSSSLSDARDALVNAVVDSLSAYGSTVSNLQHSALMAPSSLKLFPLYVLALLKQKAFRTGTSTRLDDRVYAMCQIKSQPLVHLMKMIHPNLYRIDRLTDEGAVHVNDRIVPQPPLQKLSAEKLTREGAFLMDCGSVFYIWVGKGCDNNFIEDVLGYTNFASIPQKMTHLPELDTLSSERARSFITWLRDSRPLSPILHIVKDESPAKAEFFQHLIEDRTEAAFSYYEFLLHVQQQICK
Summary of the method: as §1

UniProt O95684-2 = target: T3, UniProt O95684-2
T3 sequence (whole entry): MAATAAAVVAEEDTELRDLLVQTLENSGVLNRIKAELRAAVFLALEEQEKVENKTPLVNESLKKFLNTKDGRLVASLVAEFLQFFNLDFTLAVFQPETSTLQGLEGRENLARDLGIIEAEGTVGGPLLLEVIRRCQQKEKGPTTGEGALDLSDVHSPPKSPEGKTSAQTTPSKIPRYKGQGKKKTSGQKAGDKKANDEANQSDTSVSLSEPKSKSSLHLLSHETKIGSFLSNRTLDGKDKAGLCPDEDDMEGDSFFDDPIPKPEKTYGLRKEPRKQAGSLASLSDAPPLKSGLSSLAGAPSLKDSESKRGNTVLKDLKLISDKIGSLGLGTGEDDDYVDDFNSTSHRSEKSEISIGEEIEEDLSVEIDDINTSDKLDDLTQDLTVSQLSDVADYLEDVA
Summary of the method: as §1

UniProt O95777 = target: T4, UniProt O95777
T4 sequence (whole entry): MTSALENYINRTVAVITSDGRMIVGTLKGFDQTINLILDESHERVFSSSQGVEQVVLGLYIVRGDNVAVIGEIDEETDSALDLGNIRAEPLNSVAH
Summary of the method: as §1

VAMP5 = target: T5, VAMP5 (UniProt O95183)
T5 sequence (whole entry): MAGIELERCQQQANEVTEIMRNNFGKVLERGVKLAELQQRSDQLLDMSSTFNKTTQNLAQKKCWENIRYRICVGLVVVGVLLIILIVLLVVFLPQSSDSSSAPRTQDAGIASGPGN
Summary of the method: as §1

In the case of `Nc1ncnc2c1ncn2[C@@H]1O[C@H](COP(=O)(O)OP(=O)(O)OP(=O)(O)O)[C@@H](O)[C@H]1O` [adenosine triphosphate], the NP40-soluble protein abundance ([1]; concentration: 6mM) is reported as 0.99 ± 0.13, the NP40-soluble protein abundance ([1]; concentration: 8mM) is reported as 1.01 ± 0.033 and the NP40-soluble protein abundance ([1]; concentration: 10mM) is reported as 0.987 ± 0.031. It also gave an NP40-soluble protein abundance ([2]; concentration: 1mM) of 1.07 ± 0.023, an NP40-soluble protein abundance ([2]; concentration: 2mM) of 1.07 ± 0.01 and an NP40-soluble protein abundance ([2]; concentration: 4mM) of 1.1 ± 0.047. For the same molecule, the NP40-soluble protein abundance ([2]; concentration: 6mM) was 1.04 ± 0.042, the NP40-soluble protein abundance ([2]; concentration: 8mM) was 1.07 ± 0.039 and the NP40-soluble protein abundance ([2]; concentration: 10mM) was 1.08 ± 0.037. For the same molecule, the NP40-soluble protein abundance (UniProt O95684-2; concentration: 1mM) was 0.91 ± 0.059, the NP40-soluble protein abundance (UniProt O95684-2; concentration: 2mM) was 0.936 ± 0.012 and the NP40-soluble protein abundance (UniProt O95684-2; concentration: 4mM) was 0.921 ± 0.025. It also gave an NP40-soluble protein abundance (UniProt O95684-2; concentration: 6mM) of 0.958 ± 0.052, an NP40-soluble protein abundance (UniProt O95684-2; concentration: 8mM) of 0.9035 ± 0.0049 and an NP40-soluble protein abundance (UniProt O95684-2; concentration: 10mM) of 0.887 ± 0.056. For the same molecule, the NP40-soluble protein abundance (UniProt O95777; concentration: 1mM) was 1.08 ± 0.021, the NP40-soluble protein abundance (UniProt O95777; concentration: 2mM) was 1.05 ± 0.067 and the NP40-soluble protein abundance (UniProt O95777; concentration: 4mM) was 1.03 ± 0.032. It also gave an NP40-soluble protein abundance (UniProt O95777; concentration: 6mM) of 1.01 ± 0.088, an NP40-soluble protein abundance (UniProt O95777; concentration: 8mM) of 1.02 ± 0.036 and an NP40-soluble protein abundance (UniProt O95777; concentration: 10mM) of 1 ± 0.036. It also gave an NP40-soluble protein abundance (VAMP5; concentration: 1mM) of 0.953 ± 0.052, an NP40-soluble protein abundance (VAMP5; concentration: 2mM) of 0.93 ± 0.045 and an NP40-soluble protein abundance (VAMP5; concentration: 4mM) of 0.981 ± 0.029. It also gave an NP40-soluble protein abundance (VAMP5; concentration: 6mM) of 1.04 ± 0.052, an NP40-soluble protein abundance (VAMP5; concentration: 8mM) of 0.934 ± 0.04 and an NP40-soluble protein abundance (VAMP5; concentration: 10mM) of 0.863 ± 0.1.
